Source: paper doi:10.1101/2025.06.16.659888
These are yes or no findings as the source states them, for the method shown. In cells and extracts the contact can be indirect. Some results given as binding are weak or reduced against the parent protein; the word gives no strength.

The chains behind the UniProt entries cited, without tags or fusion partners. Where a name states a change or a piece, a line headed by the entry shows the natural chain unless it says otherwise.
UniProt P25439: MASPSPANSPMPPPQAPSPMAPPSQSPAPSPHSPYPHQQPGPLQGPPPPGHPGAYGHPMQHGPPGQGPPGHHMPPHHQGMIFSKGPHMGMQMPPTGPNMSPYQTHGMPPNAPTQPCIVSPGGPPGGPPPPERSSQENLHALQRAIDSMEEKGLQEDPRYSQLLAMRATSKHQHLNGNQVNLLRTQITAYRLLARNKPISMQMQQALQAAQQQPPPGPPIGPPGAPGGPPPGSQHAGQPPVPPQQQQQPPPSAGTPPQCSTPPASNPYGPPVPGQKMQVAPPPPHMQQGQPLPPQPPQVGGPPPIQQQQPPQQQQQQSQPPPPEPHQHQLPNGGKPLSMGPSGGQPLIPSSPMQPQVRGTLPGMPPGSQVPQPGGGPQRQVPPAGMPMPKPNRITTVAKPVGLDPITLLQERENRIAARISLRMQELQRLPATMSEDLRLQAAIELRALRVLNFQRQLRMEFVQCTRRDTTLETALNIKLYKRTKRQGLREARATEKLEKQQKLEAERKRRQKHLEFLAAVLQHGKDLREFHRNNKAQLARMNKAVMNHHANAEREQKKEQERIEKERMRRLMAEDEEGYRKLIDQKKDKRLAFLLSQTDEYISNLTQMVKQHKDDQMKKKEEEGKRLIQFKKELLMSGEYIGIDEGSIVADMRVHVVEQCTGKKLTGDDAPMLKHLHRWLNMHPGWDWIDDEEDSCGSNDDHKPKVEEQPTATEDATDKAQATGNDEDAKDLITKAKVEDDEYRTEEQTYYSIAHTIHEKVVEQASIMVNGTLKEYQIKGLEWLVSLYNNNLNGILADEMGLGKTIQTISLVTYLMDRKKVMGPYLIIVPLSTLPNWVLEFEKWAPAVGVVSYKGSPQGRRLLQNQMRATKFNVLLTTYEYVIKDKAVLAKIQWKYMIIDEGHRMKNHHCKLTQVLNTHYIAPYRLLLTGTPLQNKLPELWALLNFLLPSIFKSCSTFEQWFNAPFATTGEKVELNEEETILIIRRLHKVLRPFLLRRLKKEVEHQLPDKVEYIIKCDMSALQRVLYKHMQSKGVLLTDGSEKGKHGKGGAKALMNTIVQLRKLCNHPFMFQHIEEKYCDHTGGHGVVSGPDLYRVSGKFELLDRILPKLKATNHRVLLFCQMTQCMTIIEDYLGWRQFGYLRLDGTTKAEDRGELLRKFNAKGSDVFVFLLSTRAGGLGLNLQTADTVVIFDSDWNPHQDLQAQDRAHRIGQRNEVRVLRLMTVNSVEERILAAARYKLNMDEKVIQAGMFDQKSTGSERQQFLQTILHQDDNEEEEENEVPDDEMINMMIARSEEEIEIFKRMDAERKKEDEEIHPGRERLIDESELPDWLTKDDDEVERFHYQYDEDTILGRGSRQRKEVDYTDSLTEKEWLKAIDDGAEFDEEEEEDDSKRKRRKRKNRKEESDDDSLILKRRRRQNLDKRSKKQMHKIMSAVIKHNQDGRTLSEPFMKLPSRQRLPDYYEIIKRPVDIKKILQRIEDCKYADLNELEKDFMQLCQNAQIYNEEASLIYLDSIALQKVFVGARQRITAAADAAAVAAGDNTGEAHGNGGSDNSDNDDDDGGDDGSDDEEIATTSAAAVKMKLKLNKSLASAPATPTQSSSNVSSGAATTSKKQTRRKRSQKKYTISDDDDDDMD
UniProt Q9W321: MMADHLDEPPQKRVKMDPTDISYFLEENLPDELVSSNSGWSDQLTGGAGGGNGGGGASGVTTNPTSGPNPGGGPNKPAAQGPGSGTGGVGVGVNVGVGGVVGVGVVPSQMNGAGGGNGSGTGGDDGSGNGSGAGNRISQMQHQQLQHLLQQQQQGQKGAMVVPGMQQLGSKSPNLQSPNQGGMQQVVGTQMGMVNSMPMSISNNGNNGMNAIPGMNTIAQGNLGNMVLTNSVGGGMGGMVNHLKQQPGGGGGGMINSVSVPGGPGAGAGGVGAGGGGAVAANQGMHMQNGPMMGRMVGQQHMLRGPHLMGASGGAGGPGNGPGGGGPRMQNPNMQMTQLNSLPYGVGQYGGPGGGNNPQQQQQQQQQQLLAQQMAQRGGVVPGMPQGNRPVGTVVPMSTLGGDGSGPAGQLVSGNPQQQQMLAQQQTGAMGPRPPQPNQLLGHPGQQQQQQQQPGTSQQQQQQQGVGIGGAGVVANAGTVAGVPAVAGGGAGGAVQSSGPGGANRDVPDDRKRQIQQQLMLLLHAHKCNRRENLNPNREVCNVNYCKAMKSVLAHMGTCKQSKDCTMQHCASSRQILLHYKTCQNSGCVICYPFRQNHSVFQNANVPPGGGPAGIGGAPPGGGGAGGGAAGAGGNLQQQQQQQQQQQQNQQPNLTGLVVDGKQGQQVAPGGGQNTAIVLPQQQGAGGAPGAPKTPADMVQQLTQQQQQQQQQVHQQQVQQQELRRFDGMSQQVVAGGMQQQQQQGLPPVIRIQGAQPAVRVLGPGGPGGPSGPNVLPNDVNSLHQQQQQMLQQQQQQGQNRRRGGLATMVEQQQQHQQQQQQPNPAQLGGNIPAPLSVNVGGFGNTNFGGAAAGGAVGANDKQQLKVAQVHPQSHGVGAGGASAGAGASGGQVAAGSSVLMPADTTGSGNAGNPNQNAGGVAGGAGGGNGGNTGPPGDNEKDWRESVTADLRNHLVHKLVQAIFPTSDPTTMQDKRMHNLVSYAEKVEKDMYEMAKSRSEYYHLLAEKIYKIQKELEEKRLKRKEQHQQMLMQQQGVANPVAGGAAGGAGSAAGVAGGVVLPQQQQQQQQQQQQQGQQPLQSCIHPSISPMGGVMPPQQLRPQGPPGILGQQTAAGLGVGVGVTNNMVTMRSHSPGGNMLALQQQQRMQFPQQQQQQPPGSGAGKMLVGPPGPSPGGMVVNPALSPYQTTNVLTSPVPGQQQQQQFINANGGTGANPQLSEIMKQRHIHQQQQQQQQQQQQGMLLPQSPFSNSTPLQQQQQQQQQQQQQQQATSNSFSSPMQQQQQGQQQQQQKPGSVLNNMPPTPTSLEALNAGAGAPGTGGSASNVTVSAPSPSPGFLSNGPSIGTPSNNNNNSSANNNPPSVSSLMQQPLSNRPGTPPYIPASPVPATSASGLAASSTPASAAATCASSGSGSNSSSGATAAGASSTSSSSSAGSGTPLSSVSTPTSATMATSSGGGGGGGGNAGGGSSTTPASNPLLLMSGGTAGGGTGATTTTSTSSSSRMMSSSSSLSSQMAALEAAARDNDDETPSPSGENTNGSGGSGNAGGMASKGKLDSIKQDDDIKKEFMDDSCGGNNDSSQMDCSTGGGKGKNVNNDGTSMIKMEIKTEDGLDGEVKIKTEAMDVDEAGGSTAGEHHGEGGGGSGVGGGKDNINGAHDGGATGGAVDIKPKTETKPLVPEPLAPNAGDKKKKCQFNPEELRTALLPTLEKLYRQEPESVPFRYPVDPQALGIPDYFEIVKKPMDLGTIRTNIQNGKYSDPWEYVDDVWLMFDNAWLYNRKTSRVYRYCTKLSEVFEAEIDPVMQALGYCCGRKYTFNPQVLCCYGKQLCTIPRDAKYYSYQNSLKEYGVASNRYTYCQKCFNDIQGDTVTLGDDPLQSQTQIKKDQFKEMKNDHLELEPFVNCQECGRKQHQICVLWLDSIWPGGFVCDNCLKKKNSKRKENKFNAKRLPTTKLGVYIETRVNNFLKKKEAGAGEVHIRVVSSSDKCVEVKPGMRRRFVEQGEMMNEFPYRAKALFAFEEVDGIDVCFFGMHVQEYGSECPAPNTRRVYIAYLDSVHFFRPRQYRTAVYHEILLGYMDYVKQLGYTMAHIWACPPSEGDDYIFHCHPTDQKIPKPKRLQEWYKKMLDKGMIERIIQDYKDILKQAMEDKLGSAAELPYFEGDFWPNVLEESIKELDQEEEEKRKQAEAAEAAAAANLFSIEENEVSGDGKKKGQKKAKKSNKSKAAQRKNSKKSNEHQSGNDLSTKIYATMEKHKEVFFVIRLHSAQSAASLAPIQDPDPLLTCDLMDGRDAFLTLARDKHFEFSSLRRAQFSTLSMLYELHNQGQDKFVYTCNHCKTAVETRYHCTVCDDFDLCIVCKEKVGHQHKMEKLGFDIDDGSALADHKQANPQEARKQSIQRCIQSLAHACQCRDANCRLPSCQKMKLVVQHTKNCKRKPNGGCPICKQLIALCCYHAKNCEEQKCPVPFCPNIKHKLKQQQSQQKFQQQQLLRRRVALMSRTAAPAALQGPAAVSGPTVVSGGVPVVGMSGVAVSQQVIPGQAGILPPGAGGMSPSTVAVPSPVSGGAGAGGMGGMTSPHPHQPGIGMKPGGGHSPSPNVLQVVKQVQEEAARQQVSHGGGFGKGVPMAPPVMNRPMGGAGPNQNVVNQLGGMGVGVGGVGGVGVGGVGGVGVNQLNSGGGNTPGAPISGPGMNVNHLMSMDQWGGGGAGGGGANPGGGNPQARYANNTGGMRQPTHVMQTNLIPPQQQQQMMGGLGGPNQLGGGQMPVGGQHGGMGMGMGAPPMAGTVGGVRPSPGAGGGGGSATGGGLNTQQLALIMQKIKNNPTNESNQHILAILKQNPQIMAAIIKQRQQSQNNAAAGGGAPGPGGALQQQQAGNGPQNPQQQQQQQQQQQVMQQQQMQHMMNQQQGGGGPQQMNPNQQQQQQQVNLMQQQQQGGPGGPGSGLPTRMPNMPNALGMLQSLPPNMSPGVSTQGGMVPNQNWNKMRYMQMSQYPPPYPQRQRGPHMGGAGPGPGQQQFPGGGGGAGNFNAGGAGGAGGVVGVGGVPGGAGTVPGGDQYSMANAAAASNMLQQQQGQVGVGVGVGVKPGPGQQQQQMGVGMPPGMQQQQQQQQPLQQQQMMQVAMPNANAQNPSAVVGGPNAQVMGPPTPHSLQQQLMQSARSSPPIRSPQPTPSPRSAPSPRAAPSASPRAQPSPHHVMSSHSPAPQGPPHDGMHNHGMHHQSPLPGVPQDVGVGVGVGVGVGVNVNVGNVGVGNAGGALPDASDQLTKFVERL
UniProt P28159: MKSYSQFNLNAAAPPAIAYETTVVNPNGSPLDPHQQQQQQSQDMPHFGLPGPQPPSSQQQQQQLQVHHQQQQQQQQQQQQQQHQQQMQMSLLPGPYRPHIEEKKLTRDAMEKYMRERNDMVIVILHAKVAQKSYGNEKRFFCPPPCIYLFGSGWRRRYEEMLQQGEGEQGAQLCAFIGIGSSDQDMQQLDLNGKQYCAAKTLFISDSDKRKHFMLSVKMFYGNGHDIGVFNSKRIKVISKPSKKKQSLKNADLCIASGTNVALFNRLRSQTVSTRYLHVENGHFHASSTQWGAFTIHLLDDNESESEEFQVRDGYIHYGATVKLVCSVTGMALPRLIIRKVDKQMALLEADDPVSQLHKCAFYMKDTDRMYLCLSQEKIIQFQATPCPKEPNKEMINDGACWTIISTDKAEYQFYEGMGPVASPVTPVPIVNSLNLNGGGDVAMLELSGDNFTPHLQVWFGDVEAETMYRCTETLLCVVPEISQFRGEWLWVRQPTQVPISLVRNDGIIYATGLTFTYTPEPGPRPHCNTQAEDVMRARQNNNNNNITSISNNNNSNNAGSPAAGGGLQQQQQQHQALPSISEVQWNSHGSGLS

molecular target: SWI-SNF ATPase Brahma (Brm) (Drosophila (endogenous in whole larvae)) (UniProt P25439); test: co-IP

Substance	binding
Drosophila CBP/p300 (Nejire, Nej) (from UniProt Q9W321 1-3276)	binds
Suppressor of Hairless, Su(H) (from UniProt P28159 1-594)	binds
Mastermind (Mam) (from UniProt P21519 1-1594)	binds

molecular target: GST-tagged Suppressor of Hairless, Su(H), full length (Drosophila) (UniProt P28159); test: pull-down

Substance	binding
6X His-Brm F1 (1-311aa) (from UniProt P25439 1-311) (domain or fragment)	no binding
His-Brm F3 (748-1638aa) (from UniProt P25439 748-1638) (domain or fragment)	no binding
His-Brm F2 (304-747aa) (from UniProt P25439 304-747) (domain or fragment)	binds
